Assay results reported in the supplement of paper PMC6411743.
± gives the standard deviation of the averaged measurements. The entries are a selection whose mix differs from that of the whole data set.

Protein sequences, listed by entry. Tags and fused reporters are not part of them. Lines headed by an entry give the natural chain unless they say otherwise; changes in a name come on top.
UniProt Q9UPQ9, whole entry: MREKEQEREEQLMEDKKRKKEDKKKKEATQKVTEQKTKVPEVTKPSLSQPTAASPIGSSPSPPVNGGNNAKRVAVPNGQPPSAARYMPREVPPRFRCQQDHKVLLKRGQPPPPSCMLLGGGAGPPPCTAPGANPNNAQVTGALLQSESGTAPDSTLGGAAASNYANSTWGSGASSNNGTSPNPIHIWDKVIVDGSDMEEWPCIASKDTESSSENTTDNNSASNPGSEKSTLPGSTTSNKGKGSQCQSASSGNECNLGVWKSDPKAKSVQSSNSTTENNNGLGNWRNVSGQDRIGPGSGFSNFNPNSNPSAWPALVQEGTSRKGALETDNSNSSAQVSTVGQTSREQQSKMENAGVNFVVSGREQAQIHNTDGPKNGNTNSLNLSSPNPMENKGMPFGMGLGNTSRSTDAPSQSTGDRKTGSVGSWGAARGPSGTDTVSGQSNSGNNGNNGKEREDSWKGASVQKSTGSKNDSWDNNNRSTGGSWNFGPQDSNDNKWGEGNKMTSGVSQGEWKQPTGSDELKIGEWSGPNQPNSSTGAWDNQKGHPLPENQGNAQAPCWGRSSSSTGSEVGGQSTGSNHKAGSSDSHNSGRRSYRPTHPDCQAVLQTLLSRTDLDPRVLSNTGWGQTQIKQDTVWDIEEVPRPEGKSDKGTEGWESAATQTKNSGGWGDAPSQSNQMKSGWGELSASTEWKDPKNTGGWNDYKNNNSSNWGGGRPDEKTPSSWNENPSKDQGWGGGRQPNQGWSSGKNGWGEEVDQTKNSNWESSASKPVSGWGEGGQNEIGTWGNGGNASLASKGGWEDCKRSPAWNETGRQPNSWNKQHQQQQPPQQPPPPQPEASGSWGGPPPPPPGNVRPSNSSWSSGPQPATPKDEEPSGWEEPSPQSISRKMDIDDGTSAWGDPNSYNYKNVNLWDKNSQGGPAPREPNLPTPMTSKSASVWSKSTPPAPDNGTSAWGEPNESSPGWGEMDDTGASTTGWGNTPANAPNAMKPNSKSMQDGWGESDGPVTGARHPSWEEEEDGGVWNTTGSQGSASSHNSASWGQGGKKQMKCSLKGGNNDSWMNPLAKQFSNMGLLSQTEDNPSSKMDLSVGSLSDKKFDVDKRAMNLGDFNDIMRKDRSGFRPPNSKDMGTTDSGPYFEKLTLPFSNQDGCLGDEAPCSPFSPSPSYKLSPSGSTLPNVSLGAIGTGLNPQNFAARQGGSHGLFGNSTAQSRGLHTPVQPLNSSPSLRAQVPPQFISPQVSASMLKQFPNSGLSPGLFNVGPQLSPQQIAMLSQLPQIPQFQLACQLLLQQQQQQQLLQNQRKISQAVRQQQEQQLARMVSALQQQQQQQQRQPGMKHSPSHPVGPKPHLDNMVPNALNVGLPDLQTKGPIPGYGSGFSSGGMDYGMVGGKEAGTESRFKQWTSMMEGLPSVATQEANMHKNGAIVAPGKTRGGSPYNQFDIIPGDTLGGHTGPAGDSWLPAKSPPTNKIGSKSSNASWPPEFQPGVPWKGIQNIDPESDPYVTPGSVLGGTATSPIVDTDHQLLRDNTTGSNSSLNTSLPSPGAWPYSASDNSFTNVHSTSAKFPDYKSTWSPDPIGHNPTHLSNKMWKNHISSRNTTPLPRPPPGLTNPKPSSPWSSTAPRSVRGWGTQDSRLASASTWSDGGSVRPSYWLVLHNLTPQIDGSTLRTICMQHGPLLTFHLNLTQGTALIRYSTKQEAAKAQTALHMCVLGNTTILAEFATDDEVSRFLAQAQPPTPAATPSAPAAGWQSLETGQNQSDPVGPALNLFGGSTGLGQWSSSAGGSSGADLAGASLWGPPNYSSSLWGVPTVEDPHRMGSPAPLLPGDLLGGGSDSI
UniProt Q9UBE0: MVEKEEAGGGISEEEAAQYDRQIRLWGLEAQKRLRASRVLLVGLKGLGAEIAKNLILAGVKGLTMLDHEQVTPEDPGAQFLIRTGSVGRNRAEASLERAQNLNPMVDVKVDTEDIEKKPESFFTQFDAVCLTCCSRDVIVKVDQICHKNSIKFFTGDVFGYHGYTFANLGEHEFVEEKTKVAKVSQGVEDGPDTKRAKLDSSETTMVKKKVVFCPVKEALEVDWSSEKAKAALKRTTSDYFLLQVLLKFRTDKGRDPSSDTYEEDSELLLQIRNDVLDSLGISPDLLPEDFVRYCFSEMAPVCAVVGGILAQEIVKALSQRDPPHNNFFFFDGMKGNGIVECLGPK
UniProt Q9UHW5, whole entry: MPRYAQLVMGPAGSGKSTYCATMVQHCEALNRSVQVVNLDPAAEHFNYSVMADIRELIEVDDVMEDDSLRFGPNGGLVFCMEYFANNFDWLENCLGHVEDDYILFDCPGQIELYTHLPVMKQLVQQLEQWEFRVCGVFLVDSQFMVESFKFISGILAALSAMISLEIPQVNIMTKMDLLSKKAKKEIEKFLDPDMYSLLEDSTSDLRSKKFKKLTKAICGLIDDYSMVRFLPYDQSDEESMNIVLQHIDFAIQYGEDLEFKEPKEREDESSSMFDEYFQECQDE
UniProt Q9ULK4: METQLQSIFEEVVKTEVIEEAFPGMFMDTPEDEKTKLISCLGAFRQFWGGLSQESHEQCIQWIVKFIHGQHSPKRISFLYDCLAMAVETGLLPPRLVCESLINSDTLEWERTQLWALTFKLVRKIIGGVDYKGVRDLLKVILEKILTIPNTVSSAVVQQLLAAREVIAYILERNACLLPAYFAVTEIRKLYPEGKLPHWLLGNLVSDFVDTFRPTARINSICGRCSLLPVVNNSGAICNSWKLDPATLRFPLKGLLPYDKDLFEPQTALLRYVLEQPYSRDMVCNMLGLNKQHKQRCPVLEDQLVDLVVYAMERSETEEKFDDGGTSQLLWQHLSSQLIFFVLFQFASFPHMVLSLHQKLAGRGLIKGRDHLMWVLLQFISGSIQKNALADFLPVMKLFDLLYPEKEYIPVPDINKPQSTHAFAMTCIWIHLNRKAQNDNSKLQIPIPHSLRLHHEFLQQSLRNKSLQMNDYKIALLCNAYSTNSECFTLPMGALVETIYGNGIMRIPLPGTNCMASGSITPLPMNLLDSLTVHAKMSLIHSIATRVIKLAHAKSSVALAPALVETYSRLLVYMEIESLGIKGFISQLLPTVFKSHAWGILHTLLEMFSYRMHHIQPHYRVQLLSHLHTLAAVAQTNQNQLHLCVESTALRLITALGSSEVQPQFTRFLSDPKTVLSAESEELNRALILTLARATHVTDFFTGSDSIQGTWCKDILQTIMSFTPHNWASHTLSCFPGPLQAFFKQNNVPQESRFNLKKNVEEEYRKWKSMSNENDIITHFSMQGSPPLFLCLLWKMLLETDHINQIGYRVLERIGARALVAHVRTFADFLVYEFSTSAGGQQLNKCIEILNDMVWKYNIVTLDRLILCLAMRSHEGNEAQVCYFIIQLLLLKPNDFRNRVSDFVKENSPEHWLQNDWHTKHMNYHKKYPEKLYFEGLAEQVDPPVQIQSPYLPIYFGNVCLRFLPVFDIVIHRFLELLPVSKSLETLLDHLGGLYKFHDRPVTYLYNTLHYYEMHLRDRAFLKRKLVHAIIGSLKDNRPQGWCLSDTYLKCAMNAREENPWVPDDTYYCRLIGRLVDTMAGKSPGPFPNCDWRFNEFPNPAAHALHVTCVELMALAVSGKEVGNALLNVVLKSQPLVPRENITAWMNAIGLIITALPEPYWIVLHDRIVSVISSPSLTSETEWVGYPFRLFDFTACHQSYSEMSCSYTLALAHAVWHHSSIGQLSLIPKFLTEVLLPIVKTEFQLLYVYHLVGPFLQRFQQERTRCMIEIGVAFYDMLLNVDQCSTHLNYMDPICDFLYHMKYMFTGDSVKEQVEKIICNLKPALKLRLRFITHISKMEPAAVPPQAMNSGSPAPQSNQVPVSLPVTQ
UniProt Q9UK45: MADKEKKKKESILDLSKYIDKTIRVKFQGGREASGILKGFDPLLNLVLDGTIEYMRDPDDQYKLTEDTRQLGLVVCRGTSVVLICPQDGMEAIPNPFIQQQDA
UniProt Q9ULT8: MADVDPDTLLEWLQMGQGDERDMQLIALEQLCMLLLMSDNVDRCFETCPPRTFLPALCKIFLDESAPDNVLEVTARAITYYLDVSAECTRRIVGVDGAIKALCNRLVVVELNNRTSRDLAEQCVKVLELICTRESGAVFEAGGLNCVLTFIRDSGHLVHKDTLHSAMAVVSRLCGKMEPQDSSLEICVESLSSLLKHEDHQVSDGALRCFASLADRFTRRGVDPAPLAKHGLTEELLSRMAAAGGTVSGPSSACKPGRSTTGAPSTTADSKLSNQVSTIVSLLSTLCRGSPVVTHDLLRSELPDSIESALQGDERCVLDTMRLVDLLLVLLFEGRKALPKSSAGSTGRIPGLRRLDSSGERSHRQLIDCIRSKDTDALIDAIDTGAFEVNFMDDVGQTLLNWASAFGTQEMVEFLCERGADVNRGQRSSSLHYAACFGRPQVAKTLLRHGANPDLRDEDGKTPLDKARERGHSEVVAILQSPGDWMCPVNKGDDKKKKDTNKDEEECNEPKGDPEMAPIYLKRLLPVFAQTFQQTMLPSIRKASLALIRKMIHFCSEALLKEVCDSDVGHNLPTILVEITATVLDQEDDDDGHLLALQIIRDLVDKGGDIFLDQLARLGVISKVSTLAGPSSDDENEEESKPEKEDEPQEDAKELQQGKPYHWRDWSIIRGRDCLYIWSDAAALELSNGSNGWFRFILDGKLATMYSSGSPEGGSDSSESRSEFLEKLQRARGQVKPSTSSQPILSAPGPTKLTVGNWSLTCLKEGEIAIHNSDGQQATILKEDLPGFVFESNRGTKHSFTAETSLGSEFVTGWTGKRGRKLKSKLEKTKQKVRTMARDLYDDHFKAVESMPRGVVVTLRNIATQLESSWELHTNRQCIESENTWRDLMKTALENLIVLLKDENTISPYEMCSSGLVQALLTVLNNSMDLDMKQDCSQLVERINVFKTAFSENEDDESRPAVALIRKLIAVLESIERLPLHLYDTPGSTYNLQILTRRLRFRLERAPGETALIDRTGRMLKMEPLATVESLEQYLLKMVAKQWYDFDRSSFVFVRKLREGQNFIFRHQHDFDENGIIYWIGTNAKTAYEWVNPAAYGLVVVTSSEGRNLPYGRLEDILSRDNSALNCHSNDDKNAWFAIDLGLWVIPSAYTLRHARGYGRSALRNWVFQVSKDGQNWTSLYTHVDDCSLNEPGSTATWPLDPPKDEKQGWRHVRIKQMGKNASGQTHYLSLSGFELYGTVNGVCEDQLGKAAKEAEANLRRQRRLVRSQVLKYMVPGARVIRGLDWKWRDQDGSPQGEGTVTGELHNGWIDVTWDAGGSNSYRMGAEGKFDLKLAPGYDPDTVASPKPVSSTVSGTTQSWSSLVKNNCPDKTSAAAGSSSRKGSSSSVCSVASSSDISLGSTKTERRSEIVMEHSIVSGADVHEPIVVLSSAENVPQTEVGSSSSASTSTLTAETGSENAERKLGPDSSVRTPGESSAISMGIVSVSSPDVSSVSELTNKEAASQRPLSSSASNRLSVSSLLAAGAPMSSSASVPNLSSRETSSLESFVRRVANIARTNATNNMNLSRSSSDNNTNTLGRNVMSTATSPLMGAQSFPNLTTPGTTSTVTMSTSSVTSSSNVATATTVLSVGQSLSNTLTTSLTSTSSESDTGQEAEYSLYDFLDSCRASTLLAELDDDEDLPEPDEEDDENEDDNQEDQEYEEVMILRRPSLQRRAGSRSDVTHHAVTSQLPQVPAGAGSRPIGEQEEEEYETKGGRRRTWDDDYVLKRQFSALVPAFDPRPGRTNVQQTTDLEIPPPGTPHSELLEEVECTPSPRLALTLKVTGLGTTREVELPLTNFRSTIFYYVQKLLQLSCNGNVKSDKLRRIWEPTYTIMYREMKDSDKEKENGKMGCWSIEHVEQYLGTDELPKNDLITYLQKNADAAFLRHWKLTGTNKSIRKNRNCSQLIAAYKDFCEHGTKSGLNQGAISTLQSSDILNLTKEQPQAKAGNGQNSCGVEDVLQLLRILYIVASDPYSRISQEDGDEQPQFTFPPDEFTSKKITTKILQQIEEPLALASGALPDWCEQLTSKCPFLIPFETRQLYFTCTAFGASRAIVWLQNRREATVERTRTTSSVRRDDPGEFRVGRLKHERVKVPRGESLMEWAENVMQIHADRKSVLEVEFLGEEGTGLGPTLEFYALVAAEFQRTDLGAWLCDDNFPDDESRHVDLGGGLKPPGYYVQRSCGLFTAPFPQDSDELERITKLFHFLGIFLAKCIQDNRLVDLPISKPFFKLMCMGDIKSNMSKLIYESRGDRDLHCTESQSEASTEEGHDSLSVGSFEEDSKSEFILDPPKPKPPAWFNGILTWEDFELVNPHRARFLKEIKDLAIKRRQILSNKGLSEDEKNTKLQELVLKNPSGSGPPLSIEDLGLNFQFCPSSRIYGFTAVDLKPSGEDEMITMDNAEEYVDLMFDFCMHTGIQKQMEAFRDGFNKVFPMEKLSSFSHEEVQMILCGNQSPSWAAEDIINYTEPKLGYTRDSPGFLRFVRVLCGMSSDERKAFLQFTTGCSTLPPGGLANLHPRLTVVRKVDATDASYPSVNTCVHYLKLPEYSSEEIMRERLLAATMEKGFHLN

Compound: Nc1ncnc2c1ncn2[C@@H]1O[C@H](COP(=O)(O)OP(=O)(O)OP(=O)(O)O)[C@@H](O)[C@H]1O [adenosine triphosphate]
Test: NP40-soluble protein abundance relative to vehicle (solubility fold change) (ratio); higher = more soluble protein in presence of ATP
Summary of the method: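 Each value is a fold change relative to the detergent-processed vehicle, calculated per replicate from vsn-normalised intensities. Jurkat crude lysate received eight concentrations (0.1 to 10 mM) for 10 min at room temperature and 3 min at 37 °C, then was solubilised in 0.8% NP40 with benzonase (60 min, 4 °C). The ultracentrifuged supernatant was TMT-labelled and run by LC-MS/MS in three independent experiments.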

Target	NP40-soluble protein abundance (concentration: 1mM)	NP40-soluble protein abundance (concentration: 2mM)	NP40-soluble protein abundance (concentration: 4mM)	NP40-soluble protein abundance (concentration: 6mM)	NP40-soluble protein abundance (concentration: 8mM)	NP40-soluble protein abundance (concentration: 10mM)
UniProt Q9UG22	0.97 ± 0.02	1.02 ± 0.014	0.976 ± 0.066	0.963 ± 0.066	1.01 ± 0.017	1 ± 0.036
BCS1L (UniProt Q9Y276)	0.991 ± 0.14	1.01 ± 0.1	1.01 ± 0.051	0.914 ± 0.16	1.01 ± 0.032	0.993 ± 0.034
UniProt Q9UJX2 and related entries	1.07 ± 0.079	1.03 ± 0.045	1.03 ± 0.014	0.97 ± 0.061	1.05 ± 0.081	1.02 ± 0.068
CTTNBP2NL (UniProt Q9P2B4)	0.966 ± 0.028	0.985 ± 0.043	1.02 ± 0.057	0.996 ± 0.084	0.958 ± 0.051	0.978 ± 0.047
UniProt Q9UPQ9-1|Q9UPQ9 and related entries	0.979 ± 0.078	1.05 ± 0.055	1.02 ± 0.039	1.09 ± 0.064	1.02 ± 0.046	1.06 ± 0.051
SAE1 (UniProt Q9UBE0)	0.988 ± 0.031	0.991 ± 0.028	0.929 ± 0.019	0.965 ± 0.067	0.949 ± 0.019	0.958 ± 0.037
UniProt Q9UKW4 and related entries	1.03 ± 0.073	1.02 ± 0.062	0.982 ± 0.053	0.961 ± 0.1	0.999 ± 0.074	0.981 ± 0.05
UniProt Q9UBI1 and related entries	1.04 ± 0.015	1.028 ± 0.0053	1.02 ± 0.027	1.02 ± 0.031	1.06 ± 0.046	1.03 ± 0.058
TRAPPC4 (UniProt Q9Y296)	1.01 ± 0.089	0.976 ± 0.076	0.978 ± 0.055	0.904 ± 0.07	0.951 ± 0.039	0.966 ± 0.048
UniProt Q9UKA8 and related entries	1.14 ± 0.33	0.983 ± 0.13	1.03 ± 0.14	0.963 ± 0.018	0.903 ± 0.12	0.997 ± 0.015
UniProt Q9UPT9 and related entries	0.963 ± 0.09	0.965 ± 0.068	0.918 ± 0.06	0.951 ± 0.071	0.976 ± 0.047	0.971 ± 0.025
UniProt Q9P287 and related entries	0.952 ± 0.028	0.989 ± 0.032	0.948 ± 0.015	0.937 ± 0.052	0.939 ± 0.017	0.979 ± 0.042
GPATCH8 (UniProt Q9UKJ3)	1.41 ± 0.1	1.4 ± 0.055	1.39 ± 0.11	1.39 ± 0.079	1.25 ± 0.072	1.23 ± 0.066
COPS3 (UniProt Q9UNS2)	0.907 ± 0.0095	0.929 ± 0.023	0.896 ± 0.045	0.901 ± 0.036	0.89 ± 0.052	0.902 ± 0.01
UniProt Q9UHW5 and related entries	0.997 ± 0.074	1 ± 0.06	0.967 ± 0.085	0.957 ± 0.087	0.988 ± 0.076	0.993 ± 0.091
UniProt Q9UNS1 and related entries	0.979 ± 0.041	0.982 ± 0.02	0.968 ± 0.019	0.964 ± 0.028	0.951 ± 0.01	0.975 ± 0.025
TRMT6 (UniProt Q9UJA5)	0.942 ± 0.017	0.9616 ± 0.0055	0.9594 ± 0.0079	0.987 ± 0.017	0.959 ± 0.013	0.968 ± 0.01

Already shown: entries from further up.
Target	NP40-soluble protein abundance (concentration: 1mM)	NP40-soluble protein abundance (concentration: 2mM)	NP40-soluble protein abundance (concentration: 4mM)	NP40-soluble protein abundance (concentration: 6mM)	NP40-soluble protein abundance (concentration: 8mM)	NP40-soluble protein abundance (concentration: 10mM)
CTTNBP2NL (UniProt Q9P2B4)	0.966 ± 0.028	0.985 ± 0.043	1.02 ± 0.057	0.996 ± 0.084	0.958 ± 0.051	0.978 ± 0.047
UniProt Q9UPQ9-1|Q9UPQ9 and related entries	0.979 ± 0.078	1.05 ± 0.055	1.02 ± 0.039	1.09 ± 0.064	1.02 ± 0.046	1.06 ± 0.051
SAE1 (UniProt Q9UBE0)	0.988 ± 0.031	0.991 ± 0.028	0.929 ± 0.019	0.965 ± 0.067	0.949 ± 0.019	0.958 ± 0.037

(continued)

Target	NP40-soluble protein abundance (concentration: 1mM)	NP40-soluble protein abundance (concentration: 2mM)	NP40-soluble protein abundance (concentration: 4mM)	NP40-soluble protein abundance (concentration: 6mM)	NP40-soluble protein abundance (concentration: 8mM)	NP40-soluble protein abundance (concentration: 10mM)
NOTCH3 (UniProt Q9UM47)	0.974 ± 0.061	1 ± 0.078	0.869 ± 0.086	0.955 ± 0.024	0.864 ± 0.045	1 ± 0.21
UniProt Q9UKA9 and related entries	0.963 ± 0.045	1.01 ± 0.04	0.958 ± 0.053	0.978 ± 0.086	0.947 ± 0.049	0.972 ± 0.024
PRPF19 (UniProt Q9UMS4)	1 ± 0.056	0.999 ± 0.016	1.01 ± 0.013	1.05 ± 0.018	1.07 ± 0.012	1.11 ± 0.05
WARS2 (UniProt Q9UGM6)	0.939 ± 0.09	1.03 ± 0.054	1.02 ± 0.04	1.09 ± 0.038	0.965 ± 0.095	1.04 ± 0.041
STX8 (UniProt Q9UNK0)	0.911 ± 0.09	0.917 ± 0.023	0.958 ± 0.032	0.947 ± 0.046	0.94 ± 0.07	0.842 ± 0.15
LARS (UniProt Q9P2J5)	1.07 ± 0.08	0.978 ± 0.042	0.963 ± 0.028	0.922 ± 0.072	1.05 ± 0.049	0.96 ± 0.059
UniProt Q9ULK4 and related entries	1.1 ± 0.076	1.05 ± 0.038	1.03 ± 0.053	0.995 ± 0.035	1.1 ± 0.041	1.04 ± 0.049
LSM7 (UniProt Q9UK45)	0.894 ± 0.029	0.923 ± 0.04	0.913 ± 0.03	0.898 ± 0.032	0.921 ± 0.052	0.894 ± 0.023
UniProt Q9Y237 and related entries	0.937 ± 0.052	0.939 ± 0.05	0.916 ± 0.032	0.955 ± 0.018	0.927 ± 0.021	0.881 ± 0.054
HECA (UniProt Q9UBI9)	0.998 ± 0.41	1.02 ± 0.38	1.07 ± 0.49	1.07 ± 0.48	1.14 ± 0.52	1.13 ± 0.5
UniProt Q9ULH7-4|Q9ULH7-5	0.948 ± 0.04	0.934 ± 0.025	0.931 ± 0.04	0.958 ± 0.036	0.904 ± 0.05	0.912 ± 0.031
NUDC (UniProt Q9Y266)	0.921 ± 0.05	0.921 ± 0.019	0.886 ± 0.022	0.957 ± 0.024	0.889 ± 0.0069	0.8887 ± 0.0075
DNAJB11 (UniProt Q9UBS4)	1.05 ± 0.035	1.01 ± 0.042	0.987 ± 0.02	1.03 ± 0.11	1.03 ± 0.023	0.952 ± 0.03
CGN (UniProt Q9P2M7)	1.07 ± 0.059	1.09 ± 0.032	1.09 ± 0.015	1.13 ± 0.021	1.08 ± 0.012	1.08 ± 0.018
UniProt Q9UJU6 and related entries	0.954 ± 0.015	0.937 ± 0.018	0.9307 ± 0.0081	0.949 ± 0.038	0.914 ± 0.033	0.936 ± 0.033
HECTD1 (UniProt Q9ULT8)	0.985 ± 0.015	0.986 ± 0.014	0.993 ± 0.035	0.974 ± 0.017	0.9749 ± 0.0087	0.989 ± 0.04
